# Data taken from PubChem BioAssay AID540256 (National Center for Advancing Translational Sciences (NCATS), 2011).
# Screen size: about 300,000 compounds; about 3,700 (1.2%) were called active. This list was built around the results that the source calls inconclusive (neither active nor inactive); the mix of calls is not that of the screen. The call rests on the fitted dose curve; tested in HEK293 cells. Potencies of inconclusive entries are doubtful fits and often do not repeat.
# Test: qHTS for Inhibitors of binding or entry into cells for Lassa Virus; further: nearly all actives have a fitted effect of over 50% in size
# Details: Lassa virus pseudotype entry inhibition, cell reporter; activity change, negative = inhibition: at 37.9 µM (top of the series) unless noted
# On the % scale 0 is the no-effect control and ±100 the full control effect; potency means the concentration at half of the fitted maximal effect.
SMILES,Potency,"activity change, negative = inhibition"
CCc1ccc(-c2nc(CN3CCC(C(=O)N4CCN(c5ccccc5)CC4)CC3)c(C)o2)cc1,"inconclusive: 17.8 µM [inhibitor, single point]",–
Cc1nn(CCC(=O)NNC(=S)Nc2ccc(Cl)cc2)c(C)c1[N+](=O)[O-],"inconclusive: 5.17 µM [inhibitor, full curve, poor fit]",–
CCC(=O)N1c2ccc(S(=O)(=O)N3CCCCCC3)cc2CC1C (stereo not drawn),–,inactive: 12.7% [at 46.1 µM]
CCOC(=O)c1ccc(NC(=O)CN(c2ccc(C)cc2)S(=O)(=O)c2c(C)nn(C)c2C)cc1,–,inactive: -15%
Cc1ccc(C)c(S(=O)(=O)N2CCCC2CNC(=O)C(=O)NC2CCCCCC2)c1 (stereo not drawn),"inconclusive: 3.16 µM [inhibitor, single point]",–
COc1cccc(NC(=O)Nc2ccc3c(c2)nc(C)n3C)c1,"inconclusive: 31.6 µM [inhibitor, single point]",–
CC(C)(C)c1ccc(OCCC(=O)Nc2cccc(S(=O)(=O)NC3=NCCCCC3)c2)cc1,active: 10 µM,–
COC(=O)c1cc(Br)ccc1-c1ccc(/C=N/n2nnnc2N)o1,"inconclusive: 29.1 µM [inhibitor, single point]",–
CC1=C(C(=O)Nc2ccccn2)C(c2ccc(F)cc2)n2ncnc2N1 (stereo not drawn),"inconclusive: 6.51 µM [activator, full curve, poor fit]",–
COC(=O)c1cc(C)nc2c1c(=O)nc(SCc1c(C)cc(C)cc1C)n2C1CC1,–,inactive: -20.4% [at 46.1 µM]
COc1ccc(NC(=O)c2[nH]c(C)c(C(C)=O)c2C)cc1S(=O)(=O)Nc1ccc(Br)cc1,"inconclusive: 35.5 µM [inhibitor, single point]",–
O=C1CN(c2ccc(F)cc2)C(=S)N1c1ccccc1,"inconclusive: 1.26 µM [inhibitor, partial curve, poor fit]",–
CC(=O)N/C(N)=N/c1nc2cc([N+](=O)[O-])ccc2o1,"inconclusive: 4.47 µM [activator, full curve, poor fit]",–
CCOC(=O)c1c(C)nc2sccn12,–,inactive: 14.1%
CC(C)Oc1cccc(C(=O)Nc2ccc3oc(-c4ccccc4)nc3c2)c1,–,inactive: -25.9% [at 46.1 µM]
Cc1ccc2nc(CN3CCN(S(=O)(=O)c4ccccc4)CC3)oc2c1,–,inactive: -9.99% [at 46.1 µM]
CCOc1ccc(C(NC(=O)c2cc(OC)c(OC)c(OC)c2)c2cc(Cl)c3cccnc3c2O)cc1 (stereo not drawn),"inconclusive: 6.31 µM [inhibitor, full curve, poor fit]",–
COc1cccc(CNS(=O)(=O)c2ccccc2Br)c1OC,"inconclusive: 7.05 µM [activator, partial curve, poor fit]",–
CCc1nnc(NC(=O)c2c(O)c3c([nH]c2=O)CCCC3)s1,"inconclusive: 20.6 µM [activator, partial curve, poor fit]",–
O=C1c2[nH]nc(-c3ccccc3O)c2C(c2ccc(F)cc2)N1CC1CCCO1 (stereo not drawn),"inconclusive: 5.8 µM [inhibitor, partial curve]",–
COc1ccc(CNc2nc3ccccc3n2Cc2ccc(Cl)cc2)cc1OC,"inconclusive: 0.411 µM [inhibitor, partial curve, poor fit]",–
COc1cc(O)c2c(=O)c(-c3ccc(O[C@@H]4O[C@H](CO)[C@@H](O)[C@H](O)[C@H]4O)cc3)coc2c1,"inconclusive: 35.5 µM [inhibitor, single point]",–

SMILES,Potency,"activity change, negative = inhibition"
CCOc1ccc(S(=O)(=O)NCCC(=O)NCCc2ccc(OCC)c(OCC)c2)cc1,"inconclusive: 31.6 µM [inhibitor, single point]",–
COc1ccc(C)cc1-n1nnnc1SCC(=O)NC1CCCC1,–,inactive: 11%
COC1(C#C[C@@H]2C=C[C@H](OC(C)=O)[C@@H](COC(C)=O)O2)CCCCC1,"inconclusive: 4.73 µM [inhibitor, single point]",–
COc1cc(Nc2ncc3c(C)nc(-c4cccc(Oc5ccccc5)c4)n3n2)cc(OC)c1OC,active: 3.15 µM,–
O=C(c1cc(C(=O)NCc2ccc(Cl)cc2)c(=O)n(Cc2ccc(Cl)cc2)c1)c1cc(F)ccc1O,"inconclusive: 22.4 µM [inhibitor, single point]",–
NS(=O)(=O)c1ccc(CCNC(=O)c2ccc(=O)[nH]c2)cc1,–,inactive: 11.7%
Cc1cc(OCc2cc(C(=O)N(C)C3CCOC3)no2)cc(C)c1Cl (stereo not drawn),"inconclusive: 11.2 µM [inhibitor, partial curve, poor fit]",–
O=C(NCc1ccc(F)cc1)c1ccc(N2CCc3ccccc32)c([N+](=O)[O-])c1,active: 18.4 µM,–
COc1cc(NC(=O)c2ccccc2)c(OC)cc1Cl,–,inactive: -0.284%
CCCCC[C@H](CC(=O)NO)C(=O)N[C@H](C(=O)N1CCC[C@H]1CO)C(C)C,"inconclusive: 29.1 µM [inhibitor, single point]",–
O=C(Cc1ccc(Cl)cc1)NNC(=O)c1cnccn1,"inconclusive: 8.2 µM [activator, partial curve, poor fit]",–
CCCSc1ccc(-c2nn(-c3ccccc3)cc2/C=C(/C#N)C(=O)N2CCOCC2)cc1,"inconclusive: 14.1 µM [inhibitor, partial curve, poor fit]",–
Cc1nc2ccc(NC(=O)CCS(=O)(=O)c3ccc(Cl)cc3)cc2s1,–,inactive: -22.1%
CCCN(C(=O)c1cn(CC(C)C)c(=O)c2cc(OC)c(OC)cc12)c1cccc(C)c1,"inconclusive: 35.5 µM [inhibitor, single point]",–
COc1cc(/C=C2\N=C3CCCCCN3C2=O)ccc1O,–,inactive: 16.3%
Cc1ccc(N2CCN(S(=O)(=O)c3cc(Br)cc4c3N(C(=O)C3CC3)CC4)CC2C)cc1 (stereo not drawn),"inconclusive: 31.6 µM [activator, single point]",–
CCCCSc1nnc2c(n1)OC(c1ccc(C)s1)Nc1ccccc1-2 (stereo not drawn),–,inactive: 27.5% [at 46.1 µM]
CSc1cccc(NC(=O)/C=C/c2ccc(Cl)cc2)c1,–,inactive: -1.11%
Cc1ccc(NC(=O)c2ccco2)c([N+](=O)[O-])c1,"inconclusive: 22.4 µM [inhibitor, single point]",–
Cc1nc(N)nc(Cl)c1Cc1ccc(Cl)cc1,–,inactive: -9.49% [at 46.1 µM]
O=[N+]([O-])c1cc(S(=O)(=O)C(F)(F)F)ccc1NCC1CCCO1 (stereo not drawn),"inconclusive: 2.51 µM [activator, partial curve]",–

# Some of the entries so far, with bars between the fields:
SMILES | Potency | activity change, negative = inhibition
CCCN(C(=O)c1cn(CC(C)C)c(=O)c2cc(OC)c(OC)cc12)c1cccc(C)c1 | inconclusive: 35.5 µM [inhibitor, single point] | –
COc1cc(/C=C2\N=C3CCCCCN3C2=O)ccc1O | – | inactive: 16.3%
